US7622441B2 (Shire LLC, priority 2002, dated 2009)

Assay: peptide synthesis

Boc-Gly-Gly-Gly-Gly-Leu-Hydrocodone
step yield (coupling step): 37% yield

Gly-Gly-Gly-Gly-Leu-Hydrocodone (GGGGL; hydrocodone conjugate; synthetic carrier)
step yield (late stage modification step): 97% yield
